Experimental data: the supplement of paper PMC10849652
This is one part of the list.

By UniProt entry, the sequences of proteins in these tests, tags left out. Where a name states a change or a piece, a line headed by the entry shows the natural chain unless it says otherwise.
UniProt P49427: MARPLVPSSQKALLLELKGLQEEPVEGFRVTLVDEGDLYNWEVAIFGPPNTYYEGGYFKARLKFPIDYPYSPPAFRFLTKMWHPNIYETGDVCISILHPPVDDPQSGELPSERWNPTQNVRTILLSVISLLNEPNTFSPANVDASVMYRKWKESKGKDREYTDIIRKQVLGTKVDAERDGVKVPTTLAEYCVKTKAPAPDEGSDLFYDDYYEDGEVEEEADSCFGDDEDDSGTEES
UniProt Q9H6F5: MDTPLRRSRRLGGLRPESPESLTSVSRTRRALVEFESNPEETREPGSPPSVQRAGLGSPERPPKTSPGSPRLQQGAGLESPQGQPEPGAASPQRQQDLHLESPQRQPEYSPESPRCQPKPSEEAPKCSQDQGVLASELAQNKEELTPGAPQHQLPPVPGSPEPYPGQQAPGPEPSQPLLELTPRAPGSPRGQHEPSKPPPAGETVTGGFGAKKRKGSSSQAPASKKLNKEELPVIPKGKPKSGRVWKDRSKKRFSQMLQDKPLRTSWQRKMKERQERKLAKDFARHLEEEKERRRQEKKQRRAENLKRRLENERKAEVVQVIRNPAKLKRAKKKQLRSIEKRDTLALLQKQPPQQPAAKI
UniProt Q3V6T2: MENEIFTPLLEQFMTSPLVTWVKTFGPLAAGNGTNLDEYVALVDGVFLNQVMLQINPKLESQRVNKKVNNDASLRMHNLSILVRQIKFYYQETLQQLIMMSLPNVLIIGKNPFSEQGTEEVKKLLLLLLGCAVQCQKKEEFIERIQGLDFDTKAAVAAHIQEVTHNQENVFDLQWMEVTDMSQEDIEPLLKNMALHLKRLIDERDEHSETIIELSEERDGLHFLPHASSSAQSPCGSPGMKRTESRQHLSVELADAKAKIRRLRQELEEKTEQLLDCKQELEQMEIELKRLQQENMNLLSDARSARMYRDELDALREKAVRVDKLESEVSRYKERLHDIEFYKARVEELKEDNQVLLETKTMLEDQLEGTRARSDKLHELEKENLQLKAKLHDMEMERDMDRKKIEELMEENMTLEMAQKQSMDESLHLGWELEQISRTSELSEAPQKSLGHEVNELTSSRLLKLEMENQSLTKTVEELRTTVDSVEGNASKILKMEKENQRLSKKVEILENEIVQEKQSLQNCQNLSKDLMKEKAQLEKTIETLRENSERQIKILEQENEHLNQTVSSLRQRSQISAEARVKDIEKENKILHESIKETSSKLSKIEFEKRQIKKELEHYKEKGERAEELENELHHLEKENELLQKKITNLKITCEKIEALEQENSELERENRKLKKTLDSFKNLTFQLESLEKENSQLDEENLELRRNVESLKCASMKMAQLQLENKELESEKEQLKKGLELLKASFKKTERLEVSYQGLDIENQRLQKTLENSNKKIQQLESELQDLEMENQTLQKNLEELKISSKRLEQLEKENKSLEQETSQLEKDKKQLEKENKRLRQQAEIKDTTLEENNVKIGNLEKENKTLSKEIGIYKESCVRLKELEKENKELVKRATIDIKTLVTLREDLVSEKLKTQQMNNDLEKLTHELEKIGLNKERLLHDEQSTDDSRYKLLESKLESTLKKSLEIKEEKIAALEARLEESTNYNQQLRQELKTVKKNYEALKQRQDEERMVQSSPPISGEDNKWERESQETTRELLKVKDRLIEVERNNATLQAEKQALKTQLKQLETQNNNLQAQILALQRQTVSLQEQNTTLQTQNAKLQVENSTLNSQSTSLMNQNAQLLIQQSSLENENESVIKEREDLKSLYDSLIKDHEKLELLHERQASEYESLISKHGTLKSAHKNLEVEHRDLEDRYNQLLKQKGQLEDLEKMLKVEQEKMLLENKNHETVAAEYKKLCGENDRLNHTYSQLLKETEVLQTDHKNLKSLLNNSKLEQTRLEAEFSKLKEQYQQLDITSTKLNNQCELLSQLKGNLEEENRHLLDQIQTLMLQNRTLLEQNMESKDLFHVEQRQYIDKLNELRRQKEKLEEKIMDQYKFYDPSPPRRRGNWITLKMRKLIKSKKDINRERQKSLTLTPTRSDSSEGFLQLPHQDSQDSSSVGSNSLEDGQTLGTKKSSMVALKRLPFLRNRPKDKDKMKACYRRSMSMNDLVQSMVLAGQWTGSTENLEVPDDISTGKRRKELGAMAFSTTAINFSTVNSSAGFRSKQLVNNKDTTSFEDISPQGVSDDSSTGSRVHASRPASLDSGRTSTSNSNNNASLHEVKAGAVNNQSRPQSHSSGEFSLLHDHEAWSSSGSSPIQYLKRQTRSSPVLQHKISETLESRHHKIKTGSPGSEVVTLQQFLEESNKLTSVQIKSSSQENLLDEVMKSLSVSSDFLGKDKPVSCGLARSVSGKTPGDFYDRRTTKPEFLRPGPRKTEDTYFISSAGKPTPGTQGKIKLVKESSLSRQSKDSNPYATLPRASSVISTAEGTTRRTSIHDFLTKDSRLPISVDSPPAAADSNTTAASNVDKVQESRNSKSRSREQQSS
UniProt Q7L3B6: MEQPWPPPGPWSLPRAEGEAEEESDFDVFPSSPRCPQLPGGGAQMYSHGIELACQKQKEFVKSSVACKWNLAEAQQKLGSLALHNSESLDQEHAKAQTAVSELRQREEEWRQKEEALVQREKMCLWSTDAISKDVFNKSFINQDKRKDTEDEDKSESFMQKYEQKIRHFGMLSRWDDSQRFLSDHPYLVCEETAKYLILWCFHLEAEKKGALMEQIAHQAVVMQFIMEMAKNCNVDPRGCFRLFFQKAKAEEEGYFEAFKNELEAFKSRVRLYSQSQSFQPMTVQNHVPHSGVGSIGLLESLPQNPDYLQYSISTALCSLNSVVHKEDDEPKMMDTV
UniProt Q96ER9: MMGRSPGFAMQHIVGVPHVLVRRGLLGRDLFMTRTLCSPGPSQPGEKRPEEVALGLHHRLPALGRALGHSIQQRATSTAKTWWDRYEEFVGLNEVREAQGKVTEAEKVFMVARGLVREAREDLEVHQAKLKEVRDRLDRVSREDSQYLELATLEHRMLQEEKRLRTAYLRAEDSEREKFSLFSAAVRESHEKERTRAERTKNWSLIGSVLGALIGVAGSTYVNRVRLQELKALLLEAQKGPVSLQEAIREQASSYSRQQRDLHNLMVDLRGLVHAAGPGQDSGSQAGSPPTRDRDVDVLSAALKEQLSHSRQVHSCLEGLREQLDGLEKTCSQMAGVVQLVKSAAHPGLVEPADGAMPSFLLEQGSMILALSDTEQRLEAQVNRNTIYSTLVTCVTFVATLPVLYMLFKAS
UniProt Q567U6, whole entry, looked up: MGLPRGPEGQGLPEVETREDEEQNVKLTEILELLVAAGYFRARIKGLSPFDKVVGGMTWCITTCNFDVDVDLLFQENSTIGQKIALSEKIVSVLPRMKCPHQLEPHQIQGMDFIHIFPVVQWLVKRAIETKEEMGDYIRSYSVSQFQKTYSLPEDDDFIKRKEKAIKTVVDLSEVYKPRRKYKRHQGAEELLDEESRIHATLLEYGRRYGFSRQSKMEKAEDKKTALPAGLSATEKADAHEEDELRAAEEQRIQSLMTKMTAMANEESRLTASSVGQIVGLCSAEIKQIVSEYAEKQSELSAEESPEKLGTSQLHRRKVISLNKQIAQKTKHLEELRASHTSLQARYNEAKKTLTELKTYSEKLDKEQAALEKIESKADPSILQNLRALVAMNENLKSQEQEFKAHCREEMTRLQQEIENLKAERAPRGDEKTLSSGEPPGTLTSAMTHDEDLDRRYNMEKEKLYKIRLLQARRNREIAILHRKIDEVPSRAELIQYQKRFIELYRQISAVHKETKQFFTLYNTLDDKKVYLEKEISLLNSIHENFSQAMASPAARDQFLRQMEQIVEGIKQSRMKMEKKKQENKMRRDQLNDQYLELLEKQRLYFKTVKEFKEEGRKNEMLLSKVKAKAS
UniProt O15234, whole entry, looked up: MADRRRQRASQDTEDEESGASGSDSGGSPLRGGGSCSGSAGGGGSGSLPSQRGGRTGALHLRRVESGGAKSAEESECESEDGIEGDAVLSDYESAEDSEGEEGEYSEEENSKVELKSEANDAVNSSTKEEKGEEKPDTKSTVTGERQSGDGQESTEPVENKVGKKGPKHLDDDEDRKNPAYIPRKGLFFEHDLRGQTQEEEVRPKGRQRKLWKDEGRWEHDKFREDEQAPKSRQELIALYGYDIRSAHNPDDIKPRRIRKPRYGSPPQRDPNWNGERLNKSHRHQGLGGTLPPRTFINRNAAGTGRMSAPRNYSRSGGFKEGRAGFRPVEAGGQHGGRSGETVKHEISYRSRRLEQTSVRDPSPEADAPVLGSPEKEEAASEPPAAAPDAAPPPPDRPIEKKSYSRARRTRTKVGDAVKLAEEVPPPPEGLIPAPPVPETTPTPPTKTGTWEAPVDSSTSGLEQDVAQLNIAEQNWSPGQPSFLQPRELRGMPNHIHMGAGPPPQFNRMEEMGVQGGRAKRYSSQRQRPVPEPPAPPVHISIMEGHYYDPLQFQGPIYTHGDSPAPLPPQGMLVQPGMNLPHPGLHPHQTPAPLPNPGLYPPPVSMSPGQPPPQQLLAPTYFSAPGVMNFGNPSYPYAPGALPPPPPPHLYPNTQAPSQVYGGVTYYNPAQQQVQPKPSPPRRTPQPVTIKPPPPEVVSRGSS
UniProt P14635, whole entry, looked up: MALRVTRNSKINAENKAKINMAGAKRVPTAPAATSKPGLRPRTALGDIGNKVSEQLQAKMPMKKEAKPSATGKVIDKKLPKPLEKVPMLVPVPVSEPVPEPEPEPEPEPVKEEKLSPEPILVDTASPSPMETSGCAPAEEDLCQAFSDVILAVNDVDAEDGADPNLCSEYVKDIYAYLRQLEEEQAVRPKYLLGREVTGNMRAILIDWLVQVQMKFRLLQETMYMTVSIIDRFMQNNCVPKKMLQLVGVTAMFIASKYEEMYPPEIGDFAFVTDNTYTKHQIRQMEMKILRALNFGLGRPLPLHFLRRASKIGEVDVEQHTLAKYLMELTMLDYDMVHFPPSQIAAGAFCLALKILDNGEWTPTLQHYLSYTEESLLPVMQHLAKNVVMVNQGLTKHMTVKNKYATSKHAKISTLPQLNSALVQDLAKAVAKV
UniProt O14618: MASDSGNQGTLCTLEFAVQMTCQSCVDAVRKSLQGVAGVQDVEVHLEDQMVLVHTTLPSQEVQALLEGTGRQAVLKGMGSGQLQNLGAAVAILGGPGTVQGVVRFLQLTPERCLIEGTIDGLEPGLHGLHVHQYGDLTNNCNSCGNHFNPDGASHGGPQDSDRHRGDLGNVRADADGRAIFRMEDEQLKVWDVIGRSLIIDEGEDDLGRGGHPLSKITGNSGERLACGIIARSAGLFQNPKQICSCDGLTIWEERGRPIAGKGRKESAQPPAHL
UniProt P55212: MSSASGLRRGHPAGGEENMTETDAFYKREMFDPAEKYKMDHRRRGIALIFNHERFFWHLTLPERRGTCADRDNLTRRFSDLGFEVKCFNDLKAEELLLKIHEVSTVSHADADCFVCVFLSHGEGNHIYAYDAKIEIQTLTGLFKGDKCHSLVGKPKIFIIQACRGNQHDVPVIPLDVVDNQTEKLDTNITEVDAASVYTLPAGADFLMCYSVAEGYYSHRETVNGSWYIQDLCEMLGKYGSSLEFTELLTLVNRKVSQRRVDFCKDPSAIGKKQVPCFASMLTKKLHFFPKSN
UniProt Q16204: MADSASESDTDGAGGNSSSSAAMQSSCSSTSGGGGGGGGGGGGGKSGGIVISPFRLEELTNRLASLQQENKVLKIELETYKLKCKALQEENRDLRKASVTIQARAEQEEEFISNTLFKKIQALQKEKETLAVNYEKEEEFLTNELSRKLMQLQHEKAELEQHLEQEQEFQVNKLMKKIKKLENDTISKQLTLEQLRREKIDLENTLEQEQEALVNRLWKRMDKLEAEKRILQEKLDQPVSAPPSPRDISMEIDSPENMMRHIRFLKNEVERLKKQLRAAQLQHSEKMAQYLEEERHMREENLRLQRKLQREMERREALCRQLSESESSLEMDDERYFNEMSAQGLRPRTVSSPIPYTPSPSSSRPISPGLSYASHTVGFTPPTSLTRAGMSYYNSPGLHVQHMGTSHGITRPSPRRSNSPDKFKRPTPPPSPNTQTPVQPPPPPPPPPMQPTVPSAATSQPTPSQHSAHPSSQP
UniProt P50991: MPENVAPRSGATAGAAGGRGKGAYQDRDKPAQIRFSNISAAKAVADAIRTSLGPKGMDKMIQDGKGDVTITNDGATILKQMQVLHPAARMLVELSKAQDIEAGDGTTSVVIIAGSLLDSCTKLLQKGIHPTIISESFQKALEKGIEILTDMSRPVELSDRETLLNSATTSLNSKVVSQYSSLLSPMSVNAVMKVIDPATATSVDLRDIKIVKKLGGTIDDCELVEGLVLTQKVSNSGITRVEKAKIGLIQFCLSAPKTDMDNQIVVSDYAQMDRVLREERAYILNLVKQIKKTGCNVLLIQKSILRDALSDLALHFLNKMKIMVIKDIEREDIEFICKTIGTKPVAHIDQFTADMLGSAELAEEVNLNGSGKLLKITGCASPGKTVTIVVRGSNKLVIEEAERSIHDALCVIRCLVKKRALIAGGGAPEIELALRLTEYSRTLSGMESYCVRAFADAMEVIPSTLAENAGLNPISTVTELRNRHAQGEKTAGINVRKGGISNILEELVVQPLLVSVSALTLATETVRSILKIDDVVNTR

Tests used:
Assay in all cases: log2 fold change, soluble protein after heating vs DMSO (PISA); higher = thermal stabilisation; K562 cells, 10 uM, 30 min; active = over 0.2 and 3.5 SD of the protein, either way, in both replicates (recomputed)
[1] = compound: C1=CC=C(C=C1)[C@H](COC2=CC3=C(C=C2)NC(=O)N3)NC(=O)C4=CC=CN(C4=O)CC5=CC(=C(C=C5)F)F
Outline: (§1)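 Thermal stability values are relative to control samples and come from duplicates. They are expressed as log2 fold changes. For measurement, K562 cells (2×10^6 cells/mL) received 10 μM compound for 30 min, and aliquots were heated for 3 min over 48°C-58°C, pooled, and extracted at 4°C in PBS with 0.5% NP-40. Soluble protein, the supernatant after 21,000xg for 90 min, was quantified by TMTpro 16plex LC-MS/MS with equalised channel sums.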

[2] = compound: CC1=C(SC2=C1C(=N[C@H](C3=NN=C(N32)C)CC(=O)N)C4=CC=C(C=C4)Cl)C
Outline: as §1

[3] = compound: CC1=C2C(=CC=C1)N=C(N(C2=O)C3=CC=CC=C3C)CN4C=NC5=C(N=CN=C54)N
Outline: as §1

[4] = compound: Cc1sc2c(c1C)C(c1ccc(Cl)cc1)=N[C@@H](CC(=O)OC(C)(C)C)c1nnc(C)n1-2
Outline: as §1

[5] = compound: c1ccc([C@@H]2C[C@H]2NC2CCNCC2)cc1
Outline: as §1

Measured: log2 fold change

CBL (UniProt P22681)
inactive: [1] -0.016 | [2] 0.063 | [3] 0.065 | [4] -0.074 | [5] 0

CDC34 (UniProt P49427)
inactive: [1] -0.087 | [2] 0.023 | [3] 0.079 | [4] 0.065 | [5] 0.032

CCDC86 (UniProt Q9H6F5)
inactive: [1] 0.094 | [2] -0.288 | [3] -0.182 | [4] 0.153 | [5] 0

CBLB (UniProt Q13191)
inactive: [1] -0.048 | [2] 0.047 | [3] 0.009 | [4] 0.01 | [5] 0.061

CCDC88A (UniProt Q3V6T2)
inactive: [1] -0.173 | [2] -0.031 | [3] 0.073 | [4] -0.044 | [5] 0.051

CDC37L1 (UniProt Q7L3B6)
inactive: [1] -0.009 | [2] 0.026 | [3] 0.087 | [4] 0.337 | [5] 0.02

CD81 (UniProt P60033)
inactive: [1] -0.083 | [2] -0.013 | [3] -0.035 | [4] 0.03 | [5] 0.109

CCDC51 (UniProt Q96ER9)
inactive: [1] 0.022 | [2] 0.053 | [3] 0.02 | [4] -0.021 | [5] -0.046

CCDC93 (UniProt Q567U6)
inactive: [1] -0.099 | [2] -0.033 | [3] 0.069 | [4] -0.013 | [5] -0.048

CASC3 (UniProt O15234)
inactive: [1] 0.02 | [2] 0.044 | [3] 0.015 | [4] 0.244 | [5] 0.025

CCNB1 (UniProt P14635)
inactive: [1] -0.004 | [2] 0.036 | [3] 0.015 | [4] -0.007 | [5] 0.026

CCS (UniProt O14618)
inactive: [1] -0.078 | [2] 0.083 | [3] 0.095 | [4] -0.034 | [5] 0.015

Looked up one by one from the entries so far, 2 records:
CASC3 (UniProt O15234)
inactive: [1] 0.02 | [2] 0.044 | [3] 0.015 | [4] 0.244 | [5] 0.025

CCDC51 (UniProt Q96ER9)
inactive: [1] 0.022 | [2] 0.053 | [3] 0.02 | [4] -0.021 | [5] -0.046

Following part.

CBWD1 (UniProt Q9BRT8)
inactive: [1] 0.017 | [2] 0.02 | [3] 0.081 | [4] -0.185 | [5] -0.065

CDC123 (UniProt O75794)
inactive: [1] -0.036 | [2] 0 | [3] 0.03 | [4] -0.018 | [5] -0.029

CCSMST1 (UniProt Q4G0I0)
inactive: [1] -0.007 | [2] 0.064 | [3] 0.054 | [4] -0.083 | [5] -0.037

CBFB (UniProt Q13951)
inactive: [1] -0.044 | [2] 0.094 | [3] 0.108 | [4] -0.039 | [5] 0.001

CCND3 (UniProt P30281)
inactive: [1] -0.105 | [2] -0.015 | [3] 0.121 | [4] 0.033 | [5] 0.053

CASP6 (UniProt P55212)
inactive: [1] -0.027 | [2] 0.028 | [3] -0.021 | [4] -0.035 | [5] -0.005

CDC16 (UniProt Q13042)
inactive: [1] 0.016 | [2] -0.023 | [3] -0.008 | [4] 0.038 | [5] 0.001

CCDC9 (UniProt Q9Y3X0)
inactive: [1] -0.019 | [2] -0.012 | [3] -0.118 | [4] 0.091 | [5] 0.041

CARS2 (UniProt Q9HA77)
inactive: [1] -0.015 | [2] 0.004 | [3] 0.056 | [4] -0.016 | [5] -0.008

CCDC6 (UniProt Q16204)
inactive: [1] -0.006 | [2] 0.039 | [3] 0.043 | [4] -0.011 | [5] -0.001

CCT4 (UniProt P50991)
inactive: [1] -0.036 | [2] -0.006 | [3] -0.013 | [4] -0.012 | [5] 0.007

CD46 isoform 2 (UniProt P15529)
inactive: [1] 0.004 | [2] 0.09 | [3] 0.02 | [4] 0.016 | [5] 0.02

CDC40 (UniProt O60508)
inactive: [1] 0.248 | [2] -0.121 | [3] -0.076 | [4] -0.15 | [5] 0.081
